Source: publication doi:10.1101/2021.04.22.440930
No constants are given. Whether binding was seen depends on the method and setting. In cells and extracts the contact can be indirect. Some binding calls cover weakened binding; strength is not graded here.

The chains behind the UniProt entries cited, without tags or fusion partners. Where a name states a change or a piece, a line headed by the entry shows the natural chain unless it says otherwise. A line that says so, or that is headed by a name, gives the form on record, which may keep a tag or linker.
UniProt Q13283: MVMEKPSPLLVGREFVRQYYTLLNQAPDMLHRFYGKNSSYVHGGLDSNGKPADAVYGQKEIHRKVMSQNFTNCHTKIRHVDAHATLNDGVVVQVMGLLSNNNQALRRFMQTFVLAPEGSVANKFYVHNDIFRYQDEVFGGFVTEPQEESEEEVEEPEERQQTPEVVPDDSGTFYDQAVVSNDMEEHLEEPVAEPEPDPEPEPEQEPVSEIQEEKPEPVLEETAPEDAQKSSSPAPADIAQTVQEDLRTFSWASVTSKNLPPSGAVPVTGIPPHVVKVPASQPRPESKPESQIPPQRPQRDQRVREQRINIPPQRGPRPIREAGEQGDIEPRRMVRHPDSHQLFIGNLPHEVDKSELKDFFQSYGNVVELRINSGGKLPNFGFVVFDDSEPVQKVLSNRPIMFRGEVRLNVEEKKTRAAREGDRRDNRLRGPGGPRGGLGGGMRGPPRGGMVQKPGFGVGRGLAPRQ
GFP-G3BP1 6KR (Q13283, form named): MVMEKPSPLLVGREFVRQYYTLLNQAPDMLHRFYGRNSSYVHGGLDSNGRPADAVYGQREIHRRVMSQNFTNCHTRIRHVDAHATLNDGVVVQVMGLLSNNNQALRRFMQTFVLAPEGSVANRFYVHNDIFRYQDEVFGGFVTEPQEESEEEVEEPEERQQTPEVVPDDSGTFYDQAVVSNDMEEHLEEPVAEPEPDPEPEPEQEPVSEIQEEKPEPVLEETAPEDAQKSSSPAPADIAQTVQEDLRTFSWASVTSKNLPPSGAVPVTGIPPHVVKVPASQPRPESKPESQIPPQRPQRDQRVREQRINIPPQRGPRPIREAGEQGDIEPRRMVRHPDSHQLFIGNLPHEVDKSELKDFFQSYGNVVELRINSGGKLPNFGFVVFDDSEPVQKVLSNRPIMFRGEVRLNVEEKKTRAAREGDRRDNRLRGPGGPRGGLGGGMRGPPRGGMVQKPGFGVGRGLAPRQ

Assays:
Experiment in all cases: co-IP
[1] = target: GFP-G3BP1 6KR (UniProt Q13283)
[2] = target: G3BP1 (endogenous) (human (endogenous in U2OS)) (UniProt Q13283)
[3] = target: GFP-G3BP1 WT (UniProt Q13283)

“valosin-containing protein (VCP), endogenous (from UniProt P55072 1-806) (enzyme)” was tested, and the binding [1] was “binds weakly”.

B1: FAS-associated factor 2 (FAF2), endogenous (protein, UniProt Q96CS3 1-445)
chain: MAAPEERDLTQEQTEKLLQFQDLTGIESMDQCRHTLEQHNWNIEAAVQDRLNEQEGVPSVFNPPPSRPLQVNTADHRIYSYVVSRPQPRGLLGWGYYLIMLPFRFTYYTILDIFRFALRFIRPDPRSRVTDPVGDIVSFMHSFEEKYGRAHPVFYQGTYSQALNDAKRELRFLLVYLHGDDHQDSDEFCRNTLCAPEVISLINTRMLFWACSTNKPEGYRVSQALRENTYPFLAMIMLKDRRMTVVGRLEGLIQPDDLINQLTFIMDANQTYLVSERLEREERNQTQVLRQQQDEAYLASLRADQEKERKKREERERKRRKEEEVQQQKLAEERRRQNLQEEKERKLECLPPEPSPDDPESVKIIFKLPNDSRVERRFHFSQSLTVIHDFLFSLKESPEKFQIEANFPRRVLPCIPSEEWPNPPTLQEAGLSHTEVLFVQDLTDE
In the case of B1, the binding [2] is reported as “binds” and the binding [3] is reported as “binds”.

B2: ZFAND1 (protein, UniProt Q8TCF1 1-268)
chain: MAELDIGQHCQVEHCRQRDFLPFVCDDCSGIFCLEHRSRESHGCPEVTVINERLKTDQHTSYPCSFKDCAERELVAVICPYCEKNFCLRHRHQSDHECEKLEIPKPRMAATQKLVKDIIDSKTGETASKRWKGAKNSETAAKVALMKLKMHADGDKSLPQTERIYFQVFLPKGSKEKSKPMFFCHRWSIGKAIDFAASLARLKNDNNKFTAKKLRLCHITSGEALPLDHTLETWIAKEDCPLYNGGNIILEYLNDEEQFCKNVESYLE
For B2, the binding [2] was “no binding”.
